Article PMC5801593 (Frontiers in Molecular Biosciences, 2017)
These are yes or no findings as the source states them, for the method shown. Some entries that bind do so weakly or less than the wild type.

Protein sequences, listed by entry. Tags and fused reporters are not part of them.
UniProt P0A6B7: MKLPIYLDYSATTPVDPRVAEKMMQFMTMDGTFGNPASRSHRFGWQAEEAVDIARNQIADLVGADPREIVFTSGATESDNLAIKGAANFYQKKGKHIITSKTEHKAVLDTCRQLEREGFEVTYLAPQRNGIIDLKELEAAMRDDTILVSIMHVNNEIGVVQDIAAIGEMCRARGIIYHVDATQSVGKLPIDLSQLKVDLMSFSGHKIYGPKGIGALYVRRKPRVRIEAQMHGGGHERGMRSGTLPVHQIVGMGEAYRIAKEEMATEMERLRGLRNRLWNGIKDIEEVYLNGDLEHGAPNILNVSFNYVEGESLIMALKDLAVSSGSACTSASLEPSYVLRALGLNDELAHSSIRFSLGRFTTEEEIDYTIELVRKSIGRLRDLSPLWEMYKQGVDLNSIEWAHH

Target: T1, cysteine desulfurase IscS (E. coli, UniProt P0A6B7 1-404)
T1 construct: IscS, cysteine desulfurase of E. coli; Dimer by native MS (observed 91,035 Da, predicted 91,037 Da); An adduct of about +304 Da is put down to beta-mercaptoethanol hetero-disulfides; also called wild-type IscS; source: E. coli BL21(DE3), purified (Ni-NTA, TEV cleavage, gel filtration)
Experiment: cross-linking; mixtures of CyaY and IscS with the same cross-linker (BS3); data not shown; both purified

binding: binds
B1: CyaY (protein, UniProt P27838 1-106)
chain: MNDSEFHRLADQLWLTIEERLDDWDGDSDIDCEINGGVLTITFENGSKIIINRQEPLHQVWLATKQGGYHFDLKGDEWICDRSGETFWDLLEQAATQQAGETVSFR
